In patent publication US20210252161A1:
These are yes or no findings as the source states them, for the method shown. Some results given as binding are weak or reduced against the parent protein; the word gives no strength.

Molecular target: TPP-2618, TweakR-ECD-34-68-hIgGFc-His-R56A (human)
Experiment: ELISA, IgG coated at 1 µg/ml, 8-fold diluted HEK293 supernatant with the TWEAKR(34-68)-Fc mutein, anti-HIS-HRP, Amplex Red

binding: binds
B1: TPP-2090 (antibody, human IgG1, kappa, V domains shown)
VH: EVQLLESGGGLVQPGGSLRLSCAASGFTFSPYPMIWVRQAPGKGLEWVSYISPSGGSTHYADSVKGRFTISRDNSKNTLYLQMNSLRAEDTAVYYCARGGDTYFDYFDYWGQGTLVTVSS
VL: DIQMTQSPSSLSASVGDRVTITCRASQSISGYLNWYQQKPGKAPKLLIYQASSLQSGVPSRFSGSGSGTDFTLTISSLQPEDFATYYCQQSYTSPFITFGQGTKVEIKR
